Data from PMC5449187.
Results are given in words; binding and its absence hold for the method and conditions named. Some results given as binding are weak or reduced against the parent protein; the word gives no strength.

Protein sequences, listed by entry. Tags and fused reporters are not part of them. Residues count along the entry.
UniProt O75460, residues 29-977: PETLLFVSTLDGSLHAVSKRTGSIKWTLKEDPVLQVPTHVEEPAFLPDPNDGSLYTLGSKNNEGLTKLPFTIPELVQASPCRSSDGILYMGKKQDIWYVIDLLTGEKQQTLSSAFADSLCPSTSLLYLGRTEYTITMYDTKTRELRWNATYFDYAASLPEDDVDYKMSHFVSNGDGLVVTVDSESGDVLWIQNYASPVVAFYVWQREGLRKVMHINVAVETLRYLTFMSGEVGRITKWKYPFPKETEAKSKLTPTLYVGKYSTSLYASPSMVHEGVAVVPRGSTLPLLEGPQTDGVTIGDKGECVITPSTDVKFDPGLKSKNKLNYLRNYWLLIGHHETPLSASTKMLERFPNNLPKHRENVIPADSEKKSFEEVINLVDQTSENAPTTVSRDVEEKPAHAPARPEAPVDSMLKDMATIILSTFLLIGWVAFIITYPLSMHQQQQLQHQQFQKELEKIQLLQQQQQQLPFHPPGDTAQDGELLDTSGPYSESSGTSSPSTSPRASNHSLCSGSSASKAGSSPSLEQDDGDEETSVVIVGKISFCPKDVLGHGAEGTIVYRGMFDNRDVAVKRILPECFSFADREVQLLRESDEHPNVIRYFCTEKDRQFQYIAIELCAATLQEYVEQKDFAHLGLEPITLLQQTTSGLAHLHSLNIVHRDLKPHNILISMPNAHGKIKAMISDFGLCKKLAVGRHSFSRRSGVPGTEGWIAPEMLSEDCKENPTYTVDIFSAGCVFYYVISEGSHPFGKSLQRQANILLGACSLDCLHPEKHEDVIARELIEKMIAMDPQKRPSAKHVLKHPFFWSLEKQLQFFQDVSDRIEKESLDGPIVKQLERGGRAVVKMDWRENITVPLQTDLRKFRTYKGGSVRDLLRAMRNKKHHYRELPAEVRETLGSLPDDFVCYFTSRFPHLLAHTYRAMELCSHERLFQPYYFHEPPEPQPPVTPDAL
UniProt Q9UGP8: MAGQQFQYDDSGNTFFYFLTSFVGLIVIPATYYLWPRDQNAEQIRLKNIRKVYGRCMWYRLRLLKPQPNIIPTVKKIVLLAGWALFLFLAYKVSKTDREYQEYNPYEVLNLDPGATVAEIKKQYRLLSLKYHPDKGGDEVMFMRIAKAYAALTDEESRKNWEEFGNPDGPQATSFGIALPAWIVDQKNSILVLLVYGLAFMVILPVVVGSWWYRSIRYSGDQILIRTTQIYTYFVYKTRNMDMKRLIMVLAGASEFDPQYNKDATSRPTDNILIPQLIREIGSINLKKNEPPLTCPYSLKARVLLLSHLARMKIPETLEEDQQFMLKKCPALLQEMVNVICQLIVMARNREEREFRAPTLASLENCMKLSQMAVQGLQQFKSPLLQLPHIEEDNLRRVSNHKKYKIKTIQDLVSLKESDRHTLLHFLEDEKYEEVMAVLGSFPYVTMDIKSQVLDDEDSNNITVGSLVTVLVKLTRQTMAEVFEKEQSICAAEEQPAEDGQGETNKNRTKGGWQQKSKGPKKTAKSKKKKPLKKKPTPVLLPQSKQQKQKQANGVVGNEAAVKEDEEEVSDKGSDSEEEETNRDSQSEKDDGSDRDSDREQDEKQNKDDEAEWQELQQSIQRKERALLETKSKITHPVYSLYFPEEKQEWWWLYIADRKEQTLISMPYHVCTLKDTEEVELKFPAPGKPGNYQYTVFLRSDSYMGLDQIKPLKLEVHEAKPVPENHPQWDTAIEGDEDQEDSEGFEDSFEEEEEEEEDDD

Target: 2xStrep IRE1α (Prl-His-2xstrep-IRE1α-FLAG) (UniProt O75460)
Assay: affinity co-purification (Strep-TactinXT, then SP Sepharose); 2xStrep IRE1α variants purified from digitonin-lysed HEK293 microsomes, eluted with biotin, then ion exchange; Coomassie-stained gel and standard immunoblots (Sec61α, BiP)

Substance: Sec63 (from UniProt Q9UGP8 1-760)
- binding: binds
